At least one structure is not confirmed: it was looked up by name or label, or the drawing left a doubt.
Test system: Wild type (WT) cells of Synechocystis sp. strain PCC 6803
Test: Growth of wild type cells on BG11 plates with kanamycin
Format: cell-based
Conditions: kanamycin at 50 µg/ml; WT cells plated on BG11, 30°C, photo-autotrophic conditions

NC[C@H]1O[C@H](O[C@H]2[C@H](O)[C@@H](O[C@H]3O[C@H](CO)[C@@H](O)[C@H](N)[C@H]3O)[C@H](N)C[C@@H]2N)[C@H](O)[C@@H](O)[C@@H]1O [kanamycin]
growth: inhibited totally
